Measured data: PubChem BioAssay AID504791 (Drosophila RNAi Screening Center, 2011)
Assay: 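Genes whose knock-down strengthens or weakens small-RNA reporter silencing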 (primary screen). System: Drosophila S2-derived reporter cells. Reagents: long dsRNA against Drosophila genes, about 150-250 ng dsRNA per well (siRNA assay); about 80-120 ng (miRNA assay). Timing: about 5 days (siRNA assay); about 4 days (miRNA assay). Treatment: copper sulfate induction of reporters: 25 µM (siRNA assay); 200 mM stated (miRNA assay), 1-2 days before reading. Read-out: 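Per-well ratio of Renilla over firefly light, expressed relative to that plate's average ratio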. Active means: 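a well was a first-pass pick when its plate-scaled ratio rose above 1.5 (siRNA assay) or 1.6 (miRNA assay), or dropped below 0.6; a gene counted only if two separate dsRNAs agreed on retest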.
The screen tested about 23,000 reagents; below is an unselected part of those that have a named target and a result. Of all reagents, 199 (0.86%) got an active call. 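Plate-scaled ratios behind the calls are not deposited; printed light signals are raw; many rows marked increased or decreased are still called inactive.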 Names joined by + are all predicted targets of the reagent. The record does not give: the direction of the score.

gene knocked down	dsRNA	stable siRNA reporter change	miRNA reporter change	stable assay Renilla, run 1 (luminescence)	stable assay firefly, run 1 (luminescence)	activity call
Plzf (GeneID 34622)	DRSC02994			43799	4.64e5	inactive
Su(Tpl) (GeneID 40171)	DRSC10954	reporter ratio raised past the hit cutoff		13180	1.90e5	active
Su(Tpl) (GeneID 40171)	DRSC26497		reporter ratio raised past the hit cutoff			active
CG31709 (GeneID 261620)	DRSC01081			4874	3.92e5	inactive
CG7966 (GeneID 41610)	DRSC16356			7335	3.91e5	inactive
CG6709 + Hez	DRSC10165			6622	3.80e5	inactive
CG6709 + Hez	DRSC10698			5806	3.69e5	inactive
Smyd4-3 (GeneID 36234)	DRSC07041			7997	3.90e5	inactive
MtnA (GeneID 41202)	DRSC21588	reporter ratio lowered past the hit cutoff		8977	6.26e5	inactive
Rpp14b (GeneID 43578)	DRSC15063			6942	4.39e5	inactive
Hsp70Bb + Hsp70Bbb	DRSC15885			5550	5.40e5	inactive
CG3491 (GeneID 34870)	DRSC01934			7646	3.77e5	inactive
CG14767 (GeneID 50250)	DRSC06500			7687	6.12e5	inactive
CG15579 (GeneID 50380)	DRSC18067			6716	4.42e5	inactive
CG10730 (GeneID 35291)	DRSC02102			6918	4.71e5	inactive
CG31207 (GeneID 326125)	DRSC21886			9315	6.09e5	inactive
velo (GeneID 38748)	DRSC08841			2759	1.67e5	inactive
velo (GeneID 38748)	DRSC09698			5259	3.23e5	inactive
Trs33 (GeneID 41866)	DRSC15990			7854	3.21e5	inactive
CG12861 (GeneID 36628)	DRSC06201			5828	3.09e5	inactive
CG12861 (GeneID 36628)	DRSC21960			9678	5.88e5	inactive
CG5886 (GeneID 43125)	DRSC15908			7690	5.75e5	inactive
RhoGAP71E (GeneID 39693)	DRSC10232			10574	3.85e5	inactive
RhoGAP71E (GeneID 39693)	DRSC10837			7558	4.84e5	inactive
RhoGAP71E (GeneID 39693)	DRSC10838	reporter ratio lowered past the hit cutoff		6722	5.85e5	inactive
CG17290 (GeneID 36938)	DRSC06662			6700	4.34e5	inactive
CG5937 (GeneID 31537)	DRSC18392			6492	3.13e5	inactive
CCT7 (GeneID 41054)	DRSC16410			7107	4.67e5	inactive
CG5776 (GeneID 34680)	DRSC02891			11540	1.43e6	inactive
CG4278 (GeneID 34970)	DRSC02741			55489	1.45e6	inactive
CG5199 (GeneID 40265)	DRSC11770			8019	4.35e5	inactive
ATP6 (retired record) (GeneID 192467)	DRSC21278			5672	4.49e5	inactive
CAH5 (GeneID 50102)	DRSC15372			7231	4.27e5	inactive
CG30379 (GeneID 246578)	DRSC05070			4907	4.42e5	inactive
mtt (GeneID 35832)	DRSC05106			4472	3.24e5	inactive
mtt (GeneID 35832)	DRSC05107			5226	4.36e5	inactive
mtt (GeneID 35832)	DRSC06753			6267	3.27e5	inactive
mtt (GeneID 35832)	DRSC07235			6303	4.09e5	inactive
CG12481 (GeneID 32364)	DRSC19461			5223	4.52e5	inactive
CG3829 (GeneID 38000)	DRSC04423			20490	1.42e6	inactive
CG14339 (GeneID 33286)	DRSC00369			8010	4.16e5	inactive
CG5003 (GeneID 43344)	DRSC15694			9695	6.57e5	inactive
CG11964 (GeneID 41068)	DRSC14447			11563	4.94e5	inactive
CG32246 (GeneID 317936)	DRSC08115			6059	5.63e5	inactive
CG11211 (GeneID 35545)	DRSC04851			6562	4.16e5	inactive
CG13579 (GeneID 37905)	DRSC04215			7048	4.35e5	inactive
Nepl18 (GeneID 43410)	DRSC14879			5995	3.60e5	inactive
CG17572 (GeneID 35182)	DRSC02629			7430	4.78e5	inactive
Itgbn (GeneID 35368)	DRSC03493			8484	5.23e5	inactive
CG34054 (GeneID 3885601)	DRSC05277			5923	2.79e5	inactive
CG9173 (GeneID 38165)	DRSC08635			5999	4.23e5	inactive
blw (GeneID 37617)	DRSC04675			4219	2.35e5	inactive
Ythdf (GeneID 42995)	DRSC16036			5812	2.44e5	inactive
Ythdf (GeneID 42995)	DRSC16037			6287	2.73e5	inactive
VhaAC39-1 (GeneID 31342)	DRSC18242			7431	5.44e5	inactive
Rca1 (GeneID 33959)	DRSC03407			8535	3.72e5	inactive
aus (GeneID 42531)	DRSC13471			3691	3.59e5	inactive
aus (GeneID 42531)	DRSC13473	reporter ratio raised past the hit cutoff		1484	63163	inactive
aus (GeneID 42531)	DRSC15157			10121	3.72e5	inactive
CG34367 (GeneID 5740879)	DRSC02238			6748	3.22e5	inactive
CG34367 (GeneID 5740879)	DRSC02850			6423	3.03e5	inactive
LSm3 (GeneID 42842)	DRSC15920			6978	3.32e5	inactive
Wnt6 (GeneID 34010)	DRSC02795			9917	5.97e5	inactive
CG9360 (GeneID 32128)	DRSC20180			5132	4.74e5	inactive
CG11248 (GeneID 40411)	DRSC11644			8598	3.45e5	inactive
CG30015 (GeneID 36147)	DRSC05241			4579	3.55e5	inactive
CG30015 (GeneID 36147)	DRSC07027			7118	3.61e5	inactive
CG30015 (GeneID 36147)	DRSC07028			7315	3.49e5	inactive
Ipk2 (GeneID 33236)	DRSC00357			8646	5.45e5	inactive
CG12746 (GeneID 40672)	DRSC12218			7831	4.52e5	inactive
Tep3 (GeneID 34045)	DRSC03452			11103	6.38e5	inactive
Gr22d (retired record) (GeneID 3772682)	DRSC21653			8402	4.56e5	inactive
Syn1 (GeneID 40424)	DRSC11803			7591	3.74e5	inactive
Syn1 (GeneID 40424)	DRSC11804			7483	3.83e5	inactive
CG3662 (GeneID 33260)	DRSC00626			11286	6.24e5	inactive
CG31777 (GeneID 261617)	DRSC00201			5784	5.33e5	inactive
MSBP (GeneID 32548)	DRSC20146			7947	4.62e5	inactive
MAN1 (GeneID 37838)	DRSC04342			2.34e5	1.67e6	inactive
CG3407 (GeneID 33606)	DRSC00603			39918	3.51e5	inactive
CG8281 (GeneID 38880)	DRSC10976			7039	4.35e5	inactive
CG34417 (GeneID 31591)	DRSC17467			4819	3.02e5	inactive
CG34417 (GeneID 31591)	DRSC18332			5080	2.77e5	inactive
CG34417 (GeneID 31591)	DRSC18333			8195	3.76e5	inactive
